{"source": "PubChem BioAssay AID743454, Peter MacCallum Cancer Centre | 2014", "purpose": "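Knock-downs lowering viability or raising caspase 3/7 activity in vorinostat-treated resistant cells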 (primary screen)", "cell system": "human HCT116-VR colon cancer cells, selected for vorinostat resistance", "reagent": "siRNA pool against human genes, 40 nM siRNA pool", "time to read-out": "vorinostat for 24 h, read-out about 72 h after transfection", "treatment": "vorinostat at 2.5 µM final", "read-out": "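Two measures, CellTiter-Fluor viability and luminescent caspase 3/7 activity, each as fold change against same-plate mock wells, mean of duplicates, then screen-wide robust z-score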", "reading the numbers": "viability robust z-score: higher = more viable cells than screen typical; caspase robust z-score: higher = more caspase 3/7 activity than screen typical", "call rule": "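Hits are knock-downs in viability class RV1/RV2 or caspase class CA1/CA2, excluding ones that killed cells in the no-drug cell-count arm; hits then retested with single siRNAs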", "note": "Shown is one part, drawn at random, of about 18,000 reagents tested. Of all reagents, 450 (2.5%) are marked active. 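Single biological run; no consistent viability z cut-off exists, so the class columns, not z-scores, define the calls.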 A number with no mark means an inactive call."}
{"gene knocked down":"NEDD8 (GeneID 4738)","viability hit class":"no change","caspase hit class":"no change","viability robust z-score":-0.08,"caspase robust z-score":2.93}
{"gene knocked down":"BARHL2 (GeneID 343472)","viability hit class":"no change","caspase hit class":"no change","viability robust z-score":0.47,"caspase robust z-score":-0.6}
{"gene knocked down":"HOXB8 (GeneID 3218)","viability hit class":"no change","caspase hit class":"no change","viability robust z-score":0.13,"caspase robust z-score":-0.42}
{"gene knocked down":"MFSD1 (GeneID 64747)","viability hit class":"no change","caspase hit class":"no change","viability robust z-score":1.35,"caspase robust z-score":-1.07}
{"gene knocked down":"UBE2L6 (GeneID 9246)","viability hit class":"no change","caspase hit class":"no change","viability robust z-score":1.12,"caspase robust z-score":-1.02}
{"gene knocked down":"RSPH9 (GeneID 221421)","viability hit class":"no change","caspase hit class":"no change","viability robust z-score":0.42,"caspase robust z-score":-0.31}
{"gene knocked down":"CELF2 (GeneID 10659)","viability hit class":"no change","caspase hit class":"no change","viability robust z-score":-0.08,"caspase robust z-score":0.2}
{"gene knocked down":"MANEAL (GeneID 149175)","viability hit class":"no change","caspase hit class":"no change","viability robust z-score":-0.8,"caspase robust z-score":3.54}
{"gene knocked down":"NUDT5 (GeneID 11164)","viability hit class":"no change","caspase hit class":"no change","viability robust z-score":1.7,"caspase robust z-score":1.43}
{"gene knocked down":"KRT18P55 (GeneID 284085)","viability hit class":"no change","caspase hit class":"no change","viability robust z-score":-1.09,"caspase robust z-score":0.8}
{"gene knocked down":"FAM86C1P (GeneID 55199)","viability hit class":"no change","caspase hit class":"no change","viability robust z-score":-0.68,"caspase robust z-score":-0.74}
{"gene knocked down":"CCDC93 (GeneID 54520)","viability hit class":"no change","caspase hit class":"no change","viability robust z-score":-0.72,"caspase robust z-score":0.6}
{"gene knocked down":"SOCS6 (GeneID 9306)","viability hit class":"no change","caspase hit class":"no change","viability robust z-score":1.04,"caspase robust z-score":-0.92}
{"gene knocked down":"SLC2A4 (GeneID 6517)","viability hit class":"no change","caspase hit class":"no change","viability robust z-score":0.15,"caspase robust z-score":-0.66}
{"gene knocked down":"KCNV2 (GeneID 169522)","viability hit class":"no change","caspase hit class":"no change","viability robust z-score":-1.79,"caspase robust z-score":4.73}
{"gene knocked down":"PELI3 (GeneID 246330)","viability hit class":"no change","caspase hit class":"no change","viability robust z-score":0.2,"caspase robust z-score":0.16}
{"gene knocked down":"MUSK (GeneID 4593)","viability hit class":"no change","caspase hit class":"no change","viability robust z-score":-0.62,"caspase robust z-score":1.08}
{"gene knocked down":"MEP1B (GeneID 4225)","viability hit class":"no change","caspase hit class":"no change","viability robust z-score":0.8,"caspase robust z-score":-0.42}
{"gene knocked down":"FBXL21P (GeneID 26223)","viability hit class":"no change","caspase hit class":"no change","viability robust z-score":-0.26,"caspase robust z-score":-0.98}
{"gene knocked down":"TMEM14B (GeneID 81853)","viability hit class":"no change","caspase hit class":"no change","viability robust z-score":-1.36,"caspase robust z-score":3.63}
{"gene knocked down":"IGFL2 (GeneID 147920)","viability hit class":"no change","caspase hit class":"no change","viability robust z-score":0.37,"caspase robust z-score":3.37}
{"gene knocked down":"MTMR11 (GeneID 10903)","viability hit class":"no change","caspase hit class":"no change","viability robust z-score":-0.7,"caspase robust z-score":-0.43}
{"gene knocked down":"NEDD9 (GeneID 4739)","viability hit class":"no change","caspase hit class":"no change","viability robust z-score":0.92,"caspase robust z-score":0.46}
{"gene knocked down":"LSM2 (GeneID 57819)","viability hit class":"no change","caspase hit class":"no change","viability robust z-score":-1.84,"caspase robust z-score":1}
{"gene knocked down":"KRTAP12-2 (GeneID 353323)","viability hit class":"no change","caspase hit class":"no change","viability robust z-score":0.37,"caspase robust z-score":3}
{"gene knocked down":"OCIAD1 (GeneID 54940)","viability hit class":"no change","caspase hit class":"no change","viability robust z-score":0.9,"caspase robust z-score":-0.18}
{"gene knocked down":"FAR1 (GeneID 84188)","viability hit class":"no change","caspase hit class":"no change","viability robust z-score":-1.71,"caspase robust z-score":-1.3}

Only “viability robust z-score” (4 entries from above):
MEP1B (GeneID 4225) = 0.8
FBXL21P (GeneID 26223) = -0.26
TMEM14B (GeneID 81853) = -1.36
IGFL2 (GeneID 147920) = 0.37
